Laboratory results published in PubChem BioAssay AID248 (DTP/NCI, 2004).
The list does not hold the whole screen: it is rich in T/C values a quarter to a half above the control, in often repeated tests (any T/C) and in doses without a T/C. Other doses and runs of a compound stand elsewhere. T/C gives the treated animals as a percentage of the vehicle group. Some entries give survivors of the animals treated and no T/C: the source holds a T/C of zero for them, seemingly a mark for toxic or unscored doses. Some doses without a T/C left all or most animals alive at the check, yet need not have been tolerated: survival well below the control is almost never listed, so the zero probably covers shortened survival too. Counts of survivors are from the toxicity check (mostly the fifth day) where no day follows; animals may have died later. Schedules are NCI's codes, taken here to give the interval after Q, in days (D) or hours (H), and the number of doses after X. Some doses were run more than once; their values stand side by side, smallest first. Some schedules carry Z or #; the key to these is not given. Where survival is the endpoint, this PubChem deposit counts one and a half times the control or more as active, and values a quarter to a half above the control carry no call in these data; other NCI protocols may use other cut-offs. Some T/C values carry the count of animals alive at the toxicity check (mostly the fifth day); without a count, all were alive then.

Test system: L1210 leukemia ip in BDF1 mice, survival T/C
Assay: NCI In Vivo Anticancer Drug Screen. Data for tumor model L1210 Leukemia (intraperitoneal) in B6D2F1 (BDF1) mice
Settings: T/C endpoint: mean survival time, higher T/C = longer survival
[1] = dose: 400.0 mg/kg/injection, schedule: Q01DX009 (ip), vehicle: Klucel (hydroxypropylcellulose) (HPC)
[2] = dose: 400.0 mg/kg/injection, schedule: Q01DX001 (ip), vehicle: saline
[3] = dose: 200.0 mg/kg/injection, schedule: Q01DX001 (ip), vehicle: saline

**Q.** With `O=NN(CCCl)C(=O)N[C@H]1CCC[C@@H](O)C1` as the compound, how does the survivor count (dose: 133.0 mg/kg/injection, schedule: Q01DX001 (ip), vehicle: saline with Tween-80) read?
**A.** 10 of 10

**Q.** And the survivor count (dose: 200.0 mg/kg/injection, schedule: Q01DX001 (ip), vehicle: saline with Tween-80)?
**A.** 8 of 10

**Q.** For `CCOC(=O)c1c[nH]c2cc(OCC3CC3)c(OCC3CC3)cc2c1=O`, which survivor count (dose: 200.0 mg/kg/injection, schedule: Q01DX009 (ip), vehicle: saline with Tween-80) is on record?
**A.** 6 of 6

**Q.** What about the survivor count (dose: 400.0 mg/kg/injection, schedule: Q01DX009 (ip), vehicle: saline with Tween-80) of the same compound?
**A.** 5 of 6

**Q.** How did the survivor count [1] turn out when `COC(=O)NS(=O)(=O)C=C(c1ccccc1)c1ccccc1` was run?
**A.** 0 of 6

**Q.** `Cn1cc(C(O)CN2CCCCC2)c2ccccc21` (stereo unspecified) was tested. Which survivor count (dose: 100.0 mg/kg/injection, schedule: Q04DX003 (ip), vehicle: saline with Tween-80) did it give?
**A.** 1 of 3

**Q.** What does the source list for `O=c1c(Cl)c(C(Cl)(Cl)Cl)[nH]c2c(Cl)cc(Cl)cc12`?
**A.** survivor count (dose: 25.0 mg/kg/injection, schedule: Q01DX009 (ip), vehicle: other): 0 of 3; survivor count (dose: 50.0 mg/kg/injection, schedule: Q01DX009 (ip), vehicle: other): 0 of 3; survivor count (dose: 100.0 mg/kg/injection, schedule: Q01DX009 (ip), vehicle: other): 0 of 3; survivor count (dose: 200.0 mg/kg/injection, schedule: Q01DX009 (ip), vehicle: other): 0 of 3

**Q.** How did the survivor count (dose: 400.0 mg/kg/injection, schedule: Q04DX003 (ip), vehicle: Klucel (hydroxypropylcellulose) (HPC)) turn out when `Cc1ccc(C2(C(=O)O)CCCCC2)cc1` was run?
**A.** 3 of 6

**Q.** `CCCCCCCC/C=C\CCCCCCCCNP(=O)(OC)OC` was tested. Which survivor count (dose: 200.0 mg/kg/injection, schedule: Q04DX002 (ip), vehicle: saline with Tween-80) did it give?
**A.** 0 of 3

**Q.** And the survivor count (dose: 400.0 mg/kg/injection, schedule: Q04DX002 (ip), vehicle: saline with Tween-80)?
**A.** 0 of 3

**Q.** How did the T/C (dose: 0.23 mg/kg/injection, schedule: Q01DX Z (ip), vehicle: saline) turn out when `OC(CN(CCCl)CCCl)C(O)C(O)C(O)CN(CCCl)CCCl` (stereo unspecified) was run?
**A.** 129 % of control

**Q.** And the T/C (dose: 0.3 mg/kg/injection, schedule: Q01DX Z (ip), vehicle: saline)?
**A.** 132 % of control

**Q.** What about the T/C (dose: 1.0 mg/kg/injection, schedule: Q01DX Z (ip), vehicle: saline) of the same compound?
**A.** 128 % of control

**Q.** What about the T/C (dose: 1.25 mg/kg/injection, schedule: Q01DX001 (ip), vehicle: saline) of the same compound?
**A.** 132 and 148 % of control

**Q.** And the T/C (dose: 1.3 mg/kg/injection, schedule: Q01DX Z (ip), vehicle: saline)?
**A.** 149 % of control

**Q.** What about the T/C (dose: 2.5 mg/kg/injection, schedule: Q01DX001 (ip), vehicle: saline) of the same compound?
**A.** 126 % of control

**Q.** And the T/C (dose: 3.0 mg/kg/injection, schedule: Q01DX Z (ip), vehicle: saline)?
**A.** 142 % of control

**Q.** What about the survivor count (dose: 5.0 mg/kg/injection, schedule: Q01DX001 (ip), vehicle: saline) of the same compound?
**A.** 2 of 4

**Q.** What about the survivor count (dose: 10.0 mg/kg/injection, schedule: Q01DX001 (ip), vehicle: saline) of the same compound?
**A.** 0 of 4 and 6 of 6

**Q.** What about the survivor count (dose: 10.0 mg/kg/injection, schedule: Q01DX Z (ip), vehicle: saline) of the same compound?
**A.** 5 of 6

**Q.** What about the survivor count (dose: 15.0 mg/kg/injection, schedule: Q01DX Z (ip), vehicle: saline) of the same compound?
**A.** 1 of 6

**Q.** And the survivor count (dose: 20.0 mg/kg/injection, schedule: Q01DX001 (ip), vehicle: saline)?
**A.** 0 of 4 and 1 of 6

**Q.** And the survivor count (dose: 40.0 mg/kg/injection, schedule: Q01DX001 (ip), vehicle: saline)?
**A.** 0 of 6

**Q.** How did the survivor count [2] turn out when `O=C1c2ccccc2C(=O)C1(Br)Br` was run?
**A.** 0 of 4

**Q.** Which results are given for `c1ccc([P+](CC2CCCO2)(c2ccccc2)c2ccccc2)cc1` (stereo unspecified)?
**A.** survivor count [3]: 1 of 4; survivor count [2]: 0 of 4

**Q.** With `NC1=NC(c2ccccc2)N(c2ccccc2)C(N)=N1` (stereo unspecified) as the compound, how does the survivor count [3] read?
**A.** 1 of 6

**Q.** For `O=C1Sc2ccccc2C1=O`, which survivor count [2] is on record?
**A.** 2 of 6

**Q.** With `CCC(=O)CC1CCCC(CC(=O)CC)N1C` (stereo unspecified) as the compound, how does the survivor count (dose: 75.0 mg/kg/injection, schedule: Q01DX001 (ip), vehicle: saline) read?
**A.** 3 of 6

**Q.** And the survivor count (dose: 150.0 mg/kg/injection, schedule: Q01DX001 (ip), vehicle: saline)?
**A.** 0 of 6

**Q.** What about the survivor count (dose: 300.0 mg/kg/injection, schedule: Q01DX001 (ip), vehicle: saline) of the same compound?
**A.** 0 of 6

**Q.** What does the source list for `O=NN(CCCl)C(=O)Nc1ccc(C(F)(F)F)cc1`?
**A.** T/C (dose: 4.6 mg/kg/injection, schedule: Q01DX001 (ip), vehicle: carboxymethylcellulose (CMC)): 135 % of control; T/C (dose: 9.37 mg/kg/injection, schedule: Q01DX001 (ip), vehicle: carboxymethylcellulose (CMC)): 141 % of control; T/C (dose: 12.5 mg/kg/injection, schedule: Q01DX001 (ip), vehicle: carboxymethylcellulose (CMC)): 140 % of control; T/C (dose: 18.75 mg/kg/injection, schedule: Q01DX001 (ip), vehicle: carboxymethylcellulose (CMC)): 143 % of control; T/C (dose: 25.0 mg/kg/injection, schedule: Q01DX001 (ip), vehicle: carboxymethylcellulose (CMC)): 141 % of control; T/C (dose: 37.5 mg/kg/injection, schedule: Q01DX001 (ip), vehicle: carboxymethylcellulose (CMC)): 149 % of control; survivor count (dose: 75.0 mg/kg/injection, schedule: Q01DX Z (ip), vehicle: carboxymethylcellulose (CMC)): 6 of 6; T/C (dose: 100.0 mg/kg/injection, schedule: Q01DX001 (ip), vehicle: carboxymethylcellulose (CMC)): 143 % of control; survivor count (dose: 150.0 mg/kg/injection, schedule: Q01DX001 (ip), vehicle: carboxymethylcellulose (CMC)): 6 of 6; survivor count (dose: 150.0 mg/kg/injection, schedule: Q01DX Z (ip), vehicle: carboxymethylcellulose (CMC)): 0 of 6; survivor count (dose: 200.0 mg/kg/injection, schedule: Q01DX001 (ip), vehicle: carboxymethylcellulose (CMC)): 2 of 6; survivor count (dose: 300.0 mg/kg/injection, schedule: Q01DX001 (ip), vehicle: carboxymethylcellulose (CMC)): 0 of 6; survivor count (dose: 400.0 mg/kg/injection, schedule: Q01DX001 (ip), vehicle: carboxymethylcellulose (CMC)): 0 of 6; survivor count (dose: 500.0 mg/kg/injection, schedule: Q01DX001 (ip), vehicle: carboxymethylcellulose (CMC)): 0 of 6

**Q.** Which survivor count (dose: 200.0 mg/kg/injection, schedule: Q01DX003 (ip), vehicle: Klucel (hydroxypropylcellulose) (HPC)) does the source give for `N=C(N)SCc1ccc(Cl)c(Cl)c1` here?
**A.** 0 of 6

**Q.** And the survivor count (dose: 400.0 mg/kg/injection, schedule: Q04DX003 (ip), vehicle: saline)?
**A.** 0 of 6

**Q.** Which results are given for `CSc1ncnc2c1ncn2CO`?
**A.** T/C (dose: 85.0 mg/kg/injection, schedule: Q01DX009 (ip), vehicle: saline): 127 % of control; T/C (dose: 92.0 mg/kg/injection, schedule: Q01DX009 (ip), vehicle: carboxymethylcellulose (CMC)): 128 % of control; survivor count (dose: 185.0 mg/kg/injection, schedule: Q01DX009 (ip), vehicle: carboxymethylcellulose (CMC)): 0 of 6; survivor count (dose: 185.0 mg/kg/injection, schedule: Q01DX009 (ip), vehicle: saline): 2 of 6; survivor count (dose: 240.0 mg/kg/injection, schedule: Q01DX009 (ip), vehicle: Klucel (hydroxypropylcellulose) (HPC)): 0 of 6; T/C (dose: 250.0 mg/kg/injection, schedule: Q01DX001 (ip), vehicle: saline): 131 % of control [4 of 6 alive]; survivor count (dose: 375.0 mg/kg/injection, schedule: Q01DX001 (ip), vehicle: saline): 0 of 4

**Q.** For `CCCCCCCCCC(C)CCCCC` (stereo unspecified), which survivor count (dose: 400.0 mg/kg/injection, schedule: Q01DX001 (ip), vehicle: saline with Tween-80) is on record?
**A.** 6 of 6

**Q.** `OCCN1CCC(CCCC2CCN(CCO)CC2)CC1` was tested. Which survivor count (dose: 300.0 mg/kg/injection, schedule: Q01DX Z (ip), vehicle: saline) did it give?
**A.** 0 of 6

**Q.** Which results are given for `COC(=O)c1ccc(C(=O)CC(=O)c2ccccc2)cc1.COC(=O)c1ccc(C(=O)CC(=O)c2ccccc2)cc1.COC(=O)c1ccc(C(=O)CC(=O)c2ccccc2)cc1.COC(=O)c1ccc(C(=O)CC(=O)c2ccccc2)cc1.COC(=O)c1ccc(C(=O)CC(=O)c2ccccc2)cc1.[Th]`?
**A.** survivor count (dose: 200.0 mg/kg/injection, schedule: Q01DX005 (ip), vehicle: Klucel (hydroxypropylcellulose) (HPC)): 3 of 3; survivor count (dose: 400.0 mg/kg/injection, schedule: Q01DX005 (ip), vehicle: Klucel (hydroxypropylcellulose) (HPC)): 2 of 3

**Q.** For `CC1=C(Br)C(=O)C(C)=C(Br)C1=O`, which survivor count (dose: 100.0 mg/kg/injection, schedule: Q04DX003 (ip), vehicle: other) is on record?
**A.** 5 of 6

**Q.** What about the survivor count (dose: 200.0 mg/kg/injection, schedule: Q04DX003 (ip), vehicle: other) of the same compound?
**A.** 3 of 6

**Q.** What about the survivor count (dose: 400.0 mg/kg/injection, schedule: Q04DX003 (ip), vehicle: other) of the same compound?
**A.** 2 of 6

**Q.** `Cc1cc(O)c(C=O)c(C)c1O` was tested. Which survivor count [1] did it give?
**A.** 1 of 6

**Q.** For `ClCC1Oc2ccccc2O1`, which survivor count (dose: 200.0 mg/kg/injection, schedule: Q01DX001 (ip), vehicle: other) is on record?
**A.** 6 of 6
